The supplement of paper PMC3334620
In all, about 33,000 sequences were measured (“E-score (-0.5 to 0.5)”: median about -8e-05, highest 2% from about 0.23 on). This is one part of the list.

biological target: T1, Nrg2 (UniProt P38082); test: PBM E-score (8-mer binding enrichment) (E-score (-0.5 to 0.5)); higher = stronger / more preferred TF binding; settings: protein concentration: 100 nM; construct: GST-full length
T1 sequence: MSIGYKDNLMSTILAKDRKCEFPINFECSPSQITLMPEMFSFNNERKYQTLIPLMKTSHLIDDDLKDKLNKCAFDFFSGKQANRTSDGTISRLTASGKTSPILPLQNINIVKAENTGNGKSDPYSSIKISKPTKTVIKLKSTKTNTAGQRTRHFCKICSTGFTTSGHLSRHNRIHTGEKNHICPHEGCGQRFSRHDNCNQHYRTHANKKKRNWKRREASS
Summary of the method: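 E-scores (a modified Wilcoxon-Mann-Whitney statistic) were assigned by the Universal PBM Analysis Suite to every ungapped eight-base word pooled with its reverse complement. The input came from universal all-10-mer Agilent arrays made double-stranded by primer extension and probed with GST-tagged yeast transcription factors at about 100-200 nM. Fluorescent anti-GST detected bound protein, and masliner normalised the scans.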

Row | Sequence | PBM E-score
1 | AGATTGCT | -0.0335
2 | CACCATCC | -0.259
3 | GAACAATC | 0.0696
4 | AAATCAGC | 0.203
5 | GTTGAATA | 0.156
6 | AGTGATGC | -0.0346
7 | CTTCGCCC | -0.129
8 | CATGCAGG | 0.0522
9 | ATATCCAC | 0.0955
10 | AAATGAGC | -0.0221
11 | AGGCGTAT | 0.0997
12 | ATTCGGCG | 0.0312
13 | CGTACCTC | -0.172
14 | GGCGAACA | -0.00418
15 | CAACGCAA | -0.0742
16 | GCTAACAC | 0.0266
17 | CGTCGTCC | -0.0222
18 | CCCGGCGG | -0.136
19 | ACATGGGG | 0.0436
20 | CCCATAAG | -0.0141
21 | AATGGCTA | 0.181
22 | AGCCTCCT | -0.238
23 | ACCCTAGG | 0.0795
24 | CCAAAAGA | 0.014
25 | GGGTATGA | 0.0534

Records 11–12 from above:
Row | Sequence | PBM E-score
11 | AGGCGTAT | 0.0997
12 | ATTCGGCG | 0.0312

Next entries follow:

Row | Sequence | PBM E-score
26 | GTTAGCAA | -0.00913
27 | CACCGACG | -0.141
28 | AGGCGAGC | -0.0996
29 | TCGTGAGA | -0.0385
30 | AACCAGGC | 0.00628
31 | CTCGCACC | -0.0477
32 | AAAGGCGC | 0.0165
33 | TCAAGTCA | -0.00884
34 | GTCCGGCA | -0.0633
35 | AAGGCGAA | -0.0762
36 | ACGTTTTC | 0.139
37 | GTCTGAAC | -0.0177
38 | AAGAATTC | -0.0595
39 | AGGCAACC | -0.0327
40 | ATTAAAAA | 0.246
41 | ACCGGCAT | -0.0358
42 | CCAGTGAC | -0.141
43 | ATATGAAC | 0.116
44 | GTCACGGA | -0.00114
45 | CAGATTGG | -0.0418
46 | ATATGGGG | 0.173
47 | AAGAAGTA | 0.0804
48 | AAGATACA | 0.171
49 | GGTCTGTA | 0.0254
50 | CAGTCCCC | -0.125

Row | Sequence | PBM E-score
51 | ATGGGGGC | -0.289
52 | CACCAAGC | -0.13
53 | AGAGAGCG | -0.0462
54 | ACTAGACG | 0.026
55 | CACAAATG | -0.0239
56 | CAACGGAA | 0.121
57 | GTACGGCA | -0.0489
58 | GCGGACCC | 0.158
59 | AAAGACTT | -0.251
60 | ACTGAGCT | -0.0539
61 | CTGAGATA | -0.0803
62 | GTCAATGA | 0.0266
63 | AAAATGCG | 0.0104
64 | CAAGGCGC | 0.047
65 | GGGAAAGA | -0.173
66 | TAAAGATA | 0.0462
67 | GGGTGCAA | 0.197
68 | CTTCACTA | 0.0734
69 | TAGTGCCA | -0.0871
70 | ACCGAGGA | -0.178
71 | ACGCTAGA | -0.16
72 | AGTATGTA | -0.0131
73 | CCATACGA | -0.0461
74 | ACAATCTG | 0.0567
75 | TAGTAAAA | 0.108

Row | Sequence | PBM E-score
76 | ATCAAGTA | 0.0508
77 | AAGCAGTC | -0.135
78 | TATCCTAA | 0.0329
79 | CGACTGTA | -0.312
80 | ACACCGGC | -0.0672
81 | GAATTGCA | 0.105
82 | CCAGCTCC | -0.189
83 | ATACCTAC | 0.035
84 | GATGACCC | 0.118
85 | ACTCGAAC | 0.0772
86 | AGACTGCG | -0.192
87 | CTATGGAG | -0.253
88 | TATTCTGA | 0.018
89 | AAGTTTAC | 0.0165
90 | CTAGACGA | -0.226
91 | ATAGTTTA | -0.114
92 | AGTACGGC | -0.00767
93 | GCTTGAGA | -0.0677
94 | AGACTGGG | -0.0672
95 | ACACCGGG | -0.175
96 | ATAAAGCA | 0.0557
97 | ATATCAAG | 0.285
98 | CCCCTGAG | 0.176
99 | AGATGTAA | 0.134
100 | CATACAGG | -0.0183

Another view of some results above.
Row,Sequence,PBM E-score
89,AAGTTTAC,0.0165
90,CTAGACGA,-0.226
91,ATAGTTTA,-0.114
92,AGTACGGC,-0.00767

Going on with the list.

Row | Sequence | PBM E-score
101 | ACTGAGGG | -0.265
102 | CTATCATC | -0.151
103 | CGGTCCAA | -0.224
104 | ATGCCAGG | 0.0222
105 | ATAGGAAG | -0.127
106 | AGGAACTA | 0.105
107 | CGTGATCA | 0.0201
108 | AATCGTTA | -0.104
109 | ATATGCCC | -0.0229
110 | TCCACGGA | 0.107
111 | GGCGCTGA | -0.04
112 | ATCATGGC | 0.137
113 | ACATGTCG | -0.0034
114 | GGAGCATA | 0.0218
115 | GTTTTCAA | 0.152
116 | ACTATGGG | -0.0318
117 | ACTTGGTC | 0.179
118 | CACCGTTC | -0.0167
119 | CCGCCACG | -0.104
120 | AGTCGTCC | -0.152
121 | AAGCATAC | -0.0237
122 | ACTGCCAC | -0.0513
123 | CAGGCTGC | -0.116
124 | GTATTAAA | 0.196
125 | CATCGCTC | -0.0896

Row | Sequence | PBM E-score
126 | CCTAACAA | 0.0801
127 | TACTTTGA | 0.0852
128 | TAACGGTA | -0.0223
129 | GGGTCCGA | 0.153
130 | CCCCTAAA | -0.0979
131 | CCTGATAA | 0.0785
132 | CATGGAGA | -0.019
133 | CCAGGAGA | 0.0741
134 | GGATCGCA | 0.128
135 | ATGGAAGC | -0.0711
136 | CAGACATC | 0.0838
137 | AATGCGGG | 0.181
138 | CCGATAAC | -0.0105
139 | ACAGTGAT | 0.169
140 | ATTAGGAG | 0.0389
141 | GGCGGTAA | 0.0411
142 | GTTTTGAA | 0.14
143 | AAGGTTCC | -0.145
144 | ATCGCACC | -0.187
145 | CCAAGTGA | -0.0202
146 | GGCGTACC | 0.059
147 | TTCGCGAA | 0.22
148 | CATAGATA | 0.204
149 | CGGAAAGC | 0.0105
150 | ATCTGCCC | -0.118

Row | Sequence | PBM E-score
151 | AAACTTAG | -0.113
152 | TCGATACA | 0.243
153 | ACTAGCAC | 0.0506
154 | CCGGTGAC | -0.192
155 | ATTTTATA | 0.188
156 | AGTTGTAA | -0.0166
157 | CTCCGATA | -0.0226
158 | AGCAATGG | -0.149
159 | GCTTCTAC | -0.123
160 | AGGACAGA | 0.0623
161 | ATGGTGAG | -0.0343
162 | GACCAGTC | -0.19
163 | CTTGAATA | 0.0214
164 | CCTCCCAA | -0.094
165 | CAAATTGC | 0.0549
166 | GGAGGAGA | -0.119
167 | GAACTAGA | 0.0203
168 | ACGCTGCT | -0.144
169 | GCAAATAA | 0.149
170 | ATATGCTA | 0.0653
171 | CGTCTCTA | -0.209
172 | AACCTTCG | 0.0698
